Values quoted from earlier work in patent publication US20060234249A1, “Novel assays for assessing cancerous cell growth” (Immusol Incorporated, priority 2005, published 2006).
For at least one compound, name, drawing or mass did not settle the structure.

Tested on: a number of cancer types
Conditions: Bjornsti and Houghton 2004

In the case of `CO[C@H]1C[C@@H]2CC[C@@H](C)[C@@](O)(O2)C(=O)C(=O)N2CCCC[C@H]2C(=O)O[C@H]([C@H](C)C[C@@H]2CC[C@@H](O)[C@H](OC)C2)CC(=O)[C@H](C)/C=C(\C)[C@@H](O)[C@@H](OC)C(=O)[C@H](C)C[C@H](C)/C=C/C=C/C=C/1C` [Rapamycin], the “inhibition of cell proliferation” value is given as “potently inhibits”.
